# Results: PMC10050189, “Alpha 2-macroglobulin acts as a clearance factor in the lysosomal degradation of extracellular misfolded proteins” (Scientific Reports, 2023)
# Protein sequences, listed by entry. Tags and fused reporters are not part of them.
# UniProt Q16401: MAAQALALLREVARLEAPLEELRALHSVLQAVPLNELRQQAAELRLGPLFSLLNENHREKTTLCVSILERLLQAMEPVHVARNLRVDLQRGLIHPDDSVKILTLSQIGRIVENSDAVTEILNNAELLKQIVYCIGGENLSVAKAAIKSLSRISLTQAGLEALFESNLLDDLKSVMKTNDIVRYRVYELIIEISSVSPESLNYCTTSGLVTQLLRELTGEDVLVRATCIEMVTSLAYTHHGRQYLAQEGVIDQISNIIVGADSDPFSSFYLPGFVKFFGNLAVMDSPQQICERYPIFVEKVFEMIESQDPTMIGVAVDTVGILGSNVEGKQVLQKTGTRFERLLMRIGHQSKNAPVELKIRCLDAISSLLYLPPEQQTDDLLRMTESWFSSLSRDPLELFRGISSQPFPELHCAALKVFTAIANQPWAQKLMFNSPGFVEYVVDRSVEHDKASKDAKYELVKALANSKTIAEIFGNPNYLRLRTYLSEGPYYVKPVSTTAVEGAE
# Results are given in words; binding and its absence hold for the method and conditions named. Some binding calls cover weakened binding; strength is not graded here. Where a sequence is shown, tags or fusion partners need not be part of it.
# Biological target: clusterin–RFP–GFP (UniProt P10909)
# Test: co-IP; recombinant clusterin with recombinant substrates, with or without heat stress; which sepharose (GFP-nanobody or ALFA tag-nanobody) is not told; both purified
row,Molecule,binding
1,His–ALFA–3C–PSMD5 (from UniProt Q16401 1-504),binds
2,"His–ALFA–3C–ALDH1A1 (natural protein, human, UniProt P00352 1-501, looked up, retinal dehydrogenase 1 (ALDH1A1), cDNA amplified from HEK293 total cDNA; A 3C protease site stands between the tags and the protein; Heat-stressed at 50 °C for 1 h together with the chaperone; also called recombinant ALDH1A1; source: E. coli BL21(DE3) LOBSTR, purified (HisPur Cobalt Resin)) MSSSGTPDLPVLLTDLKIQYTKIFINNEWHDSVSGKKFPVFNPATEEELCQVEEGDKEDVDKAVKAARQAFQIGSPWRTMDASERGRLLYKLADLIERDRLLLATMESMNGGKLYSNAYLNDLAGCIKTLRYCAGWADKIQGRTIPIDGNFFTYTRHEPIGVCGQIIPWNFPLVMLIWKIGPALSCGNTVVVKPAEQTPLTALHVASLIKEAGFPPGVVNIVPGYGPTAGAAISSHMDIDKVAFTGSTEVGKLIKEAAGKSNLKRVTLELGGKSPCIVLADADLDNAVEFAHHGVFYHQGQCCIAASRIFVEESIYDEFVRRSVERAKKYILGNPLTPGVTQGPQIDKEQYDKILDLIESGKKEGAKLECGGGPWGNKGYFVQPTVFSNVTDEMRIAKEEIFGPVQQIMKFKSLDDVIKRANNTFYGLSAGVFTKDIDKAITISSALQAGTVWVNCYGVVSAQCPFGGFKMSGNGRELGEYGFHEYTEVKTVTVKISQKNS",binds
3,"His–ALFA–3C–ESD (natural protein, human, UniProt P10768 1-282, looked up, S-formylglutathione hydrolase (ESD), cDNA amplified from HEK293 total cDNA; A 3C protease site stands between the tags and the protein; Heat-stressed at 50 °C for 1 h together with the chaperone; also called recombinant ESD; source: E. coli BL21(DE3) LOBSTR, purified (HisPur Cobalt Resin)) MALKQISSNKCFGGLQKVFEHDSVELNCKMKFAVYLPPKAETGKCPALYWLSGLTCTEQNFISKSGYHQSASEHGLVVIAPDTSPRGCNIKGEDESWDFGTGAGFYVDATEDPWKTNYRMYSYVTEELPQLINANFPVDPQRMSIFGHSMGGHGALICALKNPGKYKSVSAFAPICNPVLCPWGKKAFSGYLGTDQSKWKAYDATHLVKSYPGSQLDILIDQGKDDQFLLDGQLLPDNFIAACTEKKIPVVFRLQEGYDHSYYFIATFITDHIRHHAKYLNA",binds
